Test results published in PubChem BioAssay AID1347431 (National Center for Advancing Translational Sciences (NCATS), 2020).
Values joined by “and” are separate entries in the source; they are usually repeats but may differ in a detail not shown here. Equal entries are not always repeated. The campaign covered roughly 1,200 compounds. Fewer than 10 were called active. Calls come from the whole dose curve; as a rule, active = well fitted curve in the direction sought with a large enough effect; inconclusive = small, poorly fitted or top-dose-only effect, or another doubt; inactive = no such curve, though single readings can be large or run the other way. Some of the results follow.

Assay: Confirmatory qHTS assay for inhibitors of Activation Induced Cytidine Deaminase (AID): UDG signals; note: 0% is about no effect
Conditions: UDG coupled enzyme activity counter-screen
Outline: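 Fluorescence at 560 nm excitation/665 nm emission reports UDG activity, read after NaOH quench of a 4 h room-temperature reaction of DJC20/DJC23 substrates with AID (1 uM, 4/3x) and UDG (2 U/mL, 4/3x); compounds at 7.32 nM - 114 uM final, preincubated 10 min.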

[1] = at 115 µM (top of the series) unless noted

COc1ccc2c(c1)Cc1sc(NC(=O)c3ccc(Cl)cc3)nc1-2
activity change, negative = inhibition [1]: inactive: -15.8%

N#C/C(=C\c1ccc(-c2ccc(Cl)c(C(=O)O)c2)o1)c1nc2ccccc2[nH]1
activity change, negative = inhibition [1]: inactive: 0.178%

Oc1ccc(NCc2ccccc2OCc2ccccc2Cl)cc1
activity change, negative = inhibition [1]: inactive: -17.6%

CCCCCCCCCCCCCCSCC(=O)O
activity change, negative = inhibition [1]: inactive: -3.59%

CCCCN(CC)CCCNC(=O)c1ccc2c(c1)N(Cc1ccc(C)cc1)C(=O)c1ccccc1S2
activity change, negative = inhibition [1]: inactive: -3.62%

CC1CCCN(C(=O)c2ccc(CSc3nc4ccncc4n3Cc3ccccc3)cc2)C1 (stereo not given)
activity change, negative = inhibition [1]: inactive: -2.52%

COc1cccc(-c2nc3cc(NC(=O)c4ccc(C)c([N+](=O)[O-])c4)ccc3o2)c1
activity change, negative = inhibition [1]: inactive: 5.87% and inactive: -7.73%

Cc1ccc(CNC(=O)C2CCCN(c3nc4ccccc4n4cccc34)C2)cc1 (stereo not given)
activity change, negative = inhibition [1]: inactive: -0.725%

CC(C)(C)OC(=O)N1CCC(c2c(C(=O)N3CCC(c4ccccc4)C3)cnn2-c2cccc(Cl)c2)CC1 (stereo not given)
activity change, negative = inhibition [1]: inactive: 2.5%

CCCCN(CCCC)C(=O)c1cc2c(=O)n3cccc(C)c3nc2s1
activity change, negative = inhibition [1]: inactive: -1.48%

COc1cccc(CNC(=O)c2cc3c(s2)-c2ccccc2OC3)c1
activity change, negative = inhibition [1]: inactive: -7.73%

Cc1ccc(-c2nc3sc(CCNC(=O)c4ccc(Br)o4)c(C)n3n2)cc1
activity change, negative = inhibition [1]: inactive: -10%

Cc1nc2c(C(=O)NCc3ccccc3)c[nH]n2c(=O)c1Cc1ccccc1Cl
activity change, negative = inhibition [1]: inactive: 4.49%

COc1ccc(C2CC(=O)Nc3c2c(C)nn3-c2nncc(-c3ccc(C)cc3)n2)c(OC)c1OC (stereo not given)
activity change, negative = inhibition [1]: inactive: 5.68%

Cc1cccc(CCNC(=O)c2sc3nc4n(c(=O)c3c2C)CCCC4)c1
activity change, negative = inhibition [1]: inactive: -2.85%

Clc1ccc(-c2noc3ncnc(NCCc4ccccc4)c23)cc1
activity change, negative = inhibition [1]: inactive: -2.33%

CCC(Sc1nc2ccccc2c(=O)n1CCc1ccc(OC)c(OC)c1)C(=O)N(CC)CC (stereo not given)
activity change, negative = inhibition [1]: inactive: -6.54%

COc1c(C)cccc1C(=O)Nc1cccc2ccc(C)nc12
activity change, negative = inhibition [1]: inactive: -6.4%

CCn1cc(C(=O)OCC(=O)Nc2cccc(C(C)=O)c2)c(=O)c2ccc(C)nc21
activity change, negative = inhibition [1]: inactive: -4.28%

CCOc1ccc(CN2CCc3nc(Nc4ccc(OC)cc4OC)ncc3C2)cc1
activity change, negative = inhibition [1]: inactive: -3.53%

COc1ccc(CNc2oc(-c3ccc(COc4ccccc4C)o3)nc2C#N)cc1
activity change, negative = inhibition [1]: inactive: -3.1%

CC1(C)CCC2=C(O1)c1ccccc1C(=O)C2=O
activity change, negative = inhibition [1]: inactive: -17.6%

Cc1ccc(Cl)cc1N1CCN(Cc2nnc(-c3ccc4c(c3)OCO4)o2)CC1
activity change, negative = inhibition [1]: inactive: -8.14%

O=C1C(SCCO)=C(SCCO)C(=O)c2ccccc21
activity change, negative = inhibition [1]: inactive: -7.15%

CC(C)c1ccc(S(=O)(=O)c2nnn3c2nc(N2CCN(C)CC2)c2sccc23)cc1
activity change, negative = inhibition [1]: inactive: 5.79%

CCCc1cc(=O)n2[nH]c(NC(=O)c3ccc(C(C)(C)C)cc3)nc2n1
activity change, negative = inhibition [1]: inactive: 14.5%

COc1ccc(C(=O)Nc2nc3nc(C)c(Cc4ccccc4)c(=O)n3[nH]2)cc1OC
activity change, negative = inhibition [1]: inactive: 10.1%

CC(=O)c1cccc(NC(=O)c2oc3c(c2C)-c2nn(Cc4ccc(Cl)cc4)cc2CC3)c1
activity change, negative = inhibition [1]: inactive: 5.33%

COc1ccc(S(=O)(=O)c2cnc3ccc(Cl)cc3c2N2CCCCC2C)cc1 (stereo not given)
activity change, negative = inhibition [1]: inactive: -0.395%

COc1cc(Nc2nc(SCC(=O)c3ccc(Br)cc3)nc3ccccc23)cc(OC)c1
activity change, negative = inhibition [1]: inactive: -5.41%

N#C/C(=C\c1ccc(-c2ccc(C(=O)O)cc2)o1)C(=O)Nc1ccccc1C(=O)O
activity change, negative = inhibition [1]: inactive: 3.94%

O=C(NCCc1ccccc1)c1nc(-c2ccc(Cl)cc2)n2c1CCCCC2
activity change, negative = inhibition [1]: inactive: -14.3%

COc1ccccc1NC(=O)CSc1nc(-c2ccc(C(C)(C)C)cc2)c(C#N)c(=O)[nH]1
activity change, negative = inhibition [1]: inactive: -7.97%

CCc1ccc(S(=O)(=O)c2cnc3ccc(OC)cc3c2N2CCCC(C)C2)cc1 (stereo not given)
activity change, negative = inhibition [1]: inactive: -1.53%

Cc1ccc(Nc2c(-c3ccsc3)nc3cccc(C)n23)cc1
activity change, negative = inhibition [1]: inactive: 11.1%

COc1ccc(Cl)cc1NC(=O)CSC1=Nc2ccccc2C2=NC(CC(=O)NC3CCCCC3)C(=O)N12 (stereo not given)
activity change, negative = inhibition [1]: inactive: 5.19%

CCC(C(=O)Nc1cc(OC)ccc1OC)n1c(=O)c(C(F)(F)F)nc2ccccc21 (stereo not given)
activity change, negative = inhibition [1]: inactive: -12.7%

CCCCCSc1nnc2c(n1)OC(CC)Nc1ccc(Br)cc1-2 (stereo not given)
activity change, negative = inhibition [1]: inactive: 6.46%

O=C(c1ccc2c(c1)N(Cc1ccccc1Cl)C(=O)c1ccccc1S2)N1CCCC1
activity change, negative = inhibition [1]: inactive: 0.433%

Cc1cc(NC(=O)c2oc3c(c2C)-c2[nH]ncc2CC3)ccc1Br
activity change, negative = inhibition [1]: inactive: 3.53%

COc1ccc(N2C(=O)CSC23C(=O)N(CC(=O)NCc2ccccc2)c2ccccc23)cc1 (stereo not given)
activity change, negative = inhibition [1]: inactive: 2.37%

C=Cc1ccc(CSc2nc(-c3ccccc3C)nc3c2Cc2c(CO)cnc(C)c2O3)cc1
activity change, negative = inhibition [1]: inactive: -7.44%

Cc1cccc(N2CCN(C(=O)C(C)n3nc(C)n4c(cc5occc54)c3=O)CC2)c1C (stereo not given)
activity change, negative = inhibition [1]: inactive: 2.87%

CCn1cc(C(=O)NCCc2ccccc2)c(=O)c2cc(S(=O)(=O)N3CCCCCC3)ccc21
activity change, negative = inhibition [1]: inactive: -0.945%

COc1ccc(S(=O)(=O)N(CC(=O)NC(C)c2ccccc2)c2ccc(C)cc2)cc1OC (stereo not given)
activity change, negative = inhibition [1]: inactive: -2.48%

Cc1ccc2nc(-c3ccccn3)c(Nc3ccccc3C)n2c1
activity change, negative = inhibition [1]: inactive: -8.36%

COc1ccc(-c2nc(CSCC(=O)NCc3ccccc3Cl)c(C)o2)cc1OC
activity change, negative = inhibition [1]: inactive: 6.04%

Cn1c(=O)c2c(-c3ccc(Cl)cc3)n(CCc3ccccc3)cc2n(C)c1=O
activity change, negative = inhibition [1]: inactive: -10.7%

CCCCCN1C(C(=O)c2ccccc2)=C(OC(=O)CC)c2ccccc2S1(=O)=O
activity change, negative = inhibition [1]: inactive: -0.103%

CCc1nc(Nc2ccc(F)c(Cl)c2)c2c3c(sc2n1)CCCC3
activity change, negative = inhibition [1]: inactive: -7.13%

Cc1cccc(N2CCN(C(=O)Cn3ncc4c3-c3cc(C)ccc3OC4)CC2C)c1 (stereo not given)
activity change, negative = inhibition [1]: inactive: -3.46%

Cc1nc2cc(C(=O)NCCC3=CCCCC3)ccc2n1-c1ccc(Br)cc1
activity change, negative = inhibition [1]: inactive: 0.218%

O=C(COc1ccccc1Cl)N(Cc1ccco1)Cc1ccco1
activity change, negative = inhibition [1]: inactive: -2.8%

Cc1ccc2ncc(S(=O)(=O)c3ccccc3)c(N3CCCCC3C)c2c1 (stereo not given)
activity change, negative = inhibition [1]: inactive: -7.58%

N#CC1=C2SCN(C3CCCCC3)CN2C(=O)CC1c1ccc(Br)cc1 (stereo not given)
activity change, negative = inhibition [1]: inactive: -4.55%

CCN(CC)CCCNC(=O)c1ccc2c(c1)N(Cc1c(F)cccc1Cl)C(=O)c1ccccc1S2
activity change, negative = inhibition [1]: inactive: 3.84%

O=C(COc1ccccc1)NCC(c1cccs1)S(=O)(=O)c1ccc(Cl)cc1 (stereo not given)
activity change, negative = inhibition [1]: inactive: -5.8%

CCN(C(=O)Cn1c(SCC(=O)Nc2ccc(OC)cc2)nc2ccccc21)c1cccc(C)c1
activity change, negative = inhibition [1]: inactive: -15.6%

Cc1ccc(COc2ccc3oc(-c4ccccc4)c(C(=O)O)c3c2)cc1
activity change, negative = inhibition [1]: inactive: 5.26%

Cc1ccc(CNC(=O)c2sc3nc4n(c(=O)c3c2C)CCCC4)cc1
activity change, negative = inhibition [1]: inactive: -1.49%

Cc1nn(-c2ccccc2)c(-n2cccc2)c1C(=O)NCCc1ccc(Cl)cc1
activity change, negative = inhibition [1]: inactive: 0.416%

Cc1cccc(CCNc2ncnc3onc(-c4ccc(Cl)cc4)c23)c1
activity change, negative = inhibition [1]: inactive: -7.85%

COc1ccc(CCNC(=O)CSc2cn(CCNC(=O)c3cccc(C(F)(F)F)c3)c3ccccc23)cc1OC
activity change, negative = inhibition [1]: inactive: -4.31%

Cc1ccc(NC(=O)CSc2ncc(S(=O)(=O)c3ccc(C(C)C)cc3)c(=O)[nH]2)cc1C
activity change, negative = inhibition [1]: inactive: -0.608%

Cc1ccc(C(=O)c2cn(Cc3cccc(C)c3)c3nc(C)ccc3c2=O)cc1
activity change, negative = inhibition [1]: inactive: -3.56%

COc1cc2nc(NC(=O)c3ccc(S(=O)(=O)N4CCc5ccccc54)cc3)sc2cc1OC
activity change, negative = inhibition [1]: inactive: 3.33%

CCN(CCCNC(=O)c1cc2c(=O)n(CC)c3ccccc3c2s1)Cc1ccccc1
activity change, negative = inhibition [1]: inactive: -11.7%

COc1ccc(-c2cn3c(n2)sc2cc(C(=O)NCCCN4CCCCC4)ccc23)cc1
activity change, negative = inhibition [1]: inactive: -3.99%

CC(C)(Sc1ccc(CCN(CCCCC2CCCCC2)C(=O)NC2CCCCC2)cc1)C(=O)O
activity change, negative = inhibition (at 115 µM (top of the series)): inactive: -1.42% [middle of 4 runs] | activity change, negative = inhibition (at 230 µM (top of the series)): inactive: 1.92%

CSc1ccc2c(c1)N(CCC1CCCCN1C)c1ccccc1S2 (stereo not given)
activity change, negative = inhibition [1]: inactive: 2.35%

O=C(CN(c1cc(C(F)(F)F)ccc1Cl)S(=O)(=O)c1ccccc1)NCCc1ccccc1
activity change, negative = inhibition [1]: inactive: -12.4%

CCCCCn1c(CCCNC(=O)c2cccc(C)c2)nc2ccccc21
activity change, negative = inhibition [1]: inactive: -5.02%

CCc1ccccc1N(C)C(=O)c1sc2nc3n(c(=O)c2c1C)CCCCC3
activity change, negative = inhibition [1]: inactive: 1.65%

CC1CCCN(CCCNC(=O)c2cc3c(Cl)nc4ccccc4c3s2)C1 (stereo not given)
activity change, negative = inhibition [1]: inactive: -15.9%

O=C(NCc1cccs1)c1ccc(CSc2nc3ccncc3n2Cc2ccccc2F)cc1
activity change, negative = inhibition [1]: inactive: -4.24%

Cc1ccc(Cl)cc1N1CCN(C(=O)c2ccc3c(c2)N(Cc2ccccc2)CCS3)CC1
activity change, negative = inhibition [1]: inactive: 10.8%

Cc1ccc(-c2nc(C(=O)N3CCN(c4ccccc4)CC3)c3n2CCCCC3)cc1
activity change, negative = inhibition [1]: inactive: -5.2%

Cc1ccc(CN(Cc2ccco2)C(=O)COc2cccc(C)c2C)o1
activity change, negative = inhibition [1]: inactive: -10.6%

CCN(CC)c1cc(C)c2cc(NC(=O)c3cc(OC)cc(OC)c3)ccc2n1
activity change, negative = inhibition [1]: inactive: -13.3%

COCc1cc(C)nc2sc3c(c12)NC(c1ccccc1C(=O)O)N(c1cccc(C(F)(F)F)c1)C3=O (stereo not given)
activity change, negative = inhibition [1]: inactive: 4.69%

COc1ccc(-c2noc(CN(C(=O)c3ccccc3Cl)C(C)C)n2)cc1
activity change, negative = inhibition [1]: inactive: 3.14%

Cc1ccc(C(=O)c2cn(Cc3cc(C)ccc3C)c3nc(C)ccc3c2=O)cc1
activity change, negative = inhibition [1]: inactive: -8.53%

Cc1ccc(CN(Cc2ccco2)C(=O)c2ccccc2Br)o1
activity change, negative = inhibition [1]: inactive: 0.204%

Cc1ccc(-n2cnc3cc(C(=O)NCCC4=CCCCC4)ccc32)c(C)c1
activity change, negative = inhibition [1]: inactive: -3.85%
